Results taken from the supplement of paper PMC6411743.
± gives the standard deviation of the averaged measurements. The entries are a selection whose mix differs from that of the whole data set. Most entries show no effect beyond the scatter of the controls.

Protein sequences, listed by entry. Tags and fused reporters are not part of them. Lines headed by an entry give the natural chain unless they say otherwise; changes in a name come on top.
UniProt Q9NXR5: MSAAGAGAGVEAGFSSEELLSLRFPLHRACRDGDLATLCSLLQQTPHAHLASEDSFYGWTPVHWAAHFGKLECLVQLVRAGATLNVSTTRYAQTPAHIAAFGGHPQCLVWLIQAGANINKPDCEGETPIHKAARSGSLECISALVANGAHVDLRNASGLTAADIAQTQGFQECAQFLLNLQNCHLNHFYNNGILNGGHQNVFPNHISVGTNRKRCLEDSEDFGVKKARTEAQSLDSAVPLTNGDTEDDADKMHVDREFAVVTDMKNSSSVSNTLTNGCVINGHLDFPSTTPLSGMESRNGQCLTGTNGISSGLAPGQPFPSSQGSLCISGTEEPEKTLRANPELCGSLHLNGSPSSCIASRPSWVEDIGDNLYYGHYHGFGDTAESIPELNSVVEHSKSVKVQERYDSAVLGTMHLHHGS
UniProt Q9NQ89: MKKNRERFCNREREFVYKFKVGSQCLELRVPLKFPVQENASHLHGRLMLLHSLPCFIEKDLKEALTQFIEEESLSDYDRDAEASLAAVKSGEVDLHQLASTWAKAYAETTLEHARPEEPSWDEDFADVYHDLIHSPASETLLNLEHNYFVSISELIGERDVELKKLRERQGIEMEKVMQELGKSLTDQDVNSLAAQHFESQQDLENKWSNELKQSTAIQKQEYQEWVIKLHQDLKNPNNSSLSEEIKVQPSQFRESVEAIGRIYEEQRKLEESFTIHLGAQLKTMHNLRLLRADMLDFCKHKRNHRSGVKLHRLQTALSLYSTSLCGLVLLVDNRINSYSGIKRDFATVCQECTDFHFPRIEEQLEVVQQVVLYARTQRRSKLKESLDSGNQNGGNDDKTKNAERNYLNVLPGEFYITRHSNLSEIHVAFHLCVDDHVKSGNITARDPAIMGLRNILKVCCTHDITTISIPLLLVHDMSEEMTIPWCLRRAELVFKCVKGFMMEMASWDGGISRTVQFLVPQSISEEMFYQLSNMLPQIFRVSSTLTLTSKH
UniProt Q9NUB1: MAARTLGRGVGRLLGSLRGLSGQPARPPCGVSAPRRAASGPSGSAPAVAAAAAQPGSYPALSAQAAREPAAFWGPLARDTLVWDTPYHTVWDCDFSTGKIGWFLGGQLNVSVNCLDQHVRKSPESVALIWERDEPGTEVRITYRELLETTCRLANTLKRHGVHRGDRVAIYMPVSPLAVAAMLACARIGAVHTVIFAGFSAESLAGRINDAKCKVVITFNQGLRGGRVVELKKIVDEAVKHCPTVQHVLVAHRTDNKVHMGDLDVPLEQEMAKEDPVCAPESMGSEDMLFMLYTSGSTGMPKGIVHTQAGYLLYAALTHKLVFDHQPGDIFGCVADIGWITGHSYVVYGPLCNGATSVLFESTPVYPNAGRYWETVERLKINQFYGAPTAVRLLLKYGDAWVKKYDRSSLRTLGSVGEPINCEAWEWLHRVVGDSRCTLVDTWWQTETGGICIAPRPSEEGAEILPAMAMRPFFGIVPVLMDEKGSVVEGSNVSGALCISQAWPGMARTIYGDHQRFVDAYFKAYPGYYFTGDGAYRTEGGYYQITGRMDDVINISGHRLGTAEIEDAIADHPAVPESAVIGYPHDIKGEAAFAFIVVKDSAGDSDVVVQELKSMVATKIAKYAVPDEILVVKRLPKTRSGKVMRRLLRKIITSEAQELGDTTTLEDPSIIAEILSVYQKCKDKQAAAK
UniProt Q9NX05: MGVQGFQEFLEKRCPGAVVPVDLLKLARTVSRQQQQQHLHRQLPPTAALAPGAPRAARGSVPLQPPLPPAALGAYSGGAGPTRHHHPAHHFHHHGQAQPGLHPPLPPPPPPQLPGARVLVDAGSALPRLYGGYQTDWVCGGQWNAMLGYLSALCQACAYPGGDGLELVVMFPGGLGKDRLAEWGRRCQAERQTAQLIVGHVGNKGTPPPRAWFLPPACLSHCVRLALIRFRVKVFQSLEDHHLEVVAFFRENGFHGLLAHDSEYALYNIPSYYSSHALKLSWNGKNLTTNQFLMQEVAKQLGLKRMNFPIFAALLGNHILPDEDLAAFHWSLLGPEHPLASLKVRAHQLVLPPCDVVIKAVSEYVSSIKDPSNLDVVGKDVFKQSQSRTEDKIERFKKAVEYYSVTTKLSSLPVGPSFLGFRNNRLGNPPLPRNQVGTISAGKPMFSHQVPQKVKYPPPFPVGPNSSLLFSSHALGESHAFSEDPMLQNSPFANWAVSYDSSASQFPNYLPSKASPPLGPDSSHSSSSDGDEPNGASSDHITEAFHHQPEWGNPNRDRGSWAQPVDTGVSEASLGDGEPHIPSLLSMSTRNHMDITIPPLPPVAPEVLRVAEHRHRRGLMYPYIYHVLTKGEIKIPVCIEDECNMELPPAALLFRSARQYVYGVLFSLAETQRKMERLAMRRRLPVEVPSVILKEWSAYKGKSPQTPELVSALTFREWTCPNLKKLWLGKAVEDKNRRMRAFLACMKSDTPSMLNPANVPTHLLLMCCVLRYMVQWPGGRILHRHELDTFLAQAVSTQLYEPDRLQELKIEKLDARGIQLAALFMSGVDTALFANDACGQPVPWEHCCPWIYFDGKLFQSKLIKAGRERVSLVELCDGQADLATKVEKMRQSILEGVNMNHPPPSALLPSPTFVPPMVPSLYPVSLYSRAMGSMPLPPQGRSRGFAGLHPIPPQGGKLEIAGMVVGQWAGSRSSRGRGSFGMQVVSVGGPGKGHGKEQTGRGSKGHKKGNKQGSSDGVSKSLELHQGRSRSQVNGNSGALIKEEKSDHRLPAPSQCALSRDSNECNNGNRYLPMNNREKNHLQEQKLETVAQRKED
UniProt Q9P0R6: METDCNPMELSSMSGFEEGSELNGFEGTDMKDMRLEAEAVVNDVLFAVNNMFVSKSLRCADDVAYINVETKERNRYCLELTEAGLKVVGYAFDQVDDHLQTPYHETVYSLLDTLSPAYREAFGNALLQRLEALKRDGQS
UniProt Q9NQS7, whole entry: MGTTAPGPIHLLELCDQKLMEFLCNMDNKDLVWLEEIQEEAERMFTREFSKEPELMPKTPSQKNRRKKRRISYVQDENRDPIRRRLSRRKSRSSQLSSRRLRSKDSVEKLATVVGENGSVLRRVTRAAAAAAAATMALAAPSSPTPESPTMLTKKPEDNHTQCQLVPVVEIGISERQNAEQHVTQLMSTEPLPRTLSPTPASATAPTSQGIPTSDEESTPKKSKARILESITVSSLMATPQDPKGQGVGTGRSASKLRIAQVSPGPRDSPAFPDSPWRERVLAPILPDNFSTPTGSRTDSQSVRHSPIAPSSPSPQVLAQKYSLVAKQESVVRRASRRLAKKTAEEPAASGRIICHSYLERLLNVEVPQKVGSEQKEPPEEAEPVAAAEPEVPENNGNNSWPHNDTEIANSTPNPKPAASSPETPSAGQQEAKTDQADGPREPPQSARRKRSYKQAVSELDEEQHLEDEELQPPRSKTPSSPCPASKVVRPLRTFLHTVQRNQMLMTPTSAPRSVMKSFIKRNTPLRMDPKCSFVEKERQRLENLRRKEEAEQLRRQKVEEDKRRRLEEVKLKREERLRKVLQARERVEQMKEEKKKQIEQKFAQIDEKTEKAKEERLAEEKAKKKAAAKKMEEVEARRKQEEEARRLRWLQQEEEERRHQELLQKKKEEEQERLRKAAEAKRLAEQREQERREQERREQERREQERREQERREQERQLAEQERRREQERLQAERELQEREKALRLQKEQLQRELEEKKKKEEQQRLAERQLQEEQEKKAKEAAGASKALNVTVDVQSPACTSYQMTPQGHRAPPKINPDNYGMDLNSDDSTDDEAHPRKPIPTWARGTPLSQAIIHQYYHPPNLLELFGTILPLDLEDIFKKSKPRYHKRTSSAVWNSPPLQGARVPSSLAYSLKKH
UniProt Q9NQR4: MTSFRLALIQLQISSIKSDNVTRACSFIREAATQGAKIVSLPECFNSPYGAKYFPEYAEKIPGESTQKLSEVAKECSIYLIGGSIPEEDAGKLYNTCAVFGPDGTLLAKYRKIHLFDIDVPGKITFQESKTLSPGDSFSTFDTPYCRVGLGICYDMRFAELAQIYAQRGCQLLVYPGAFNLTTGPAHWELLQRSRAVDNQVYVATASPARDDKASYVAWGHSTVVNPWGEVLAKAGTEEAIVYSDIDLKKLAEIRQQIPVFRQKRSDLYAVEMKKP
UniProt Q9NPF4: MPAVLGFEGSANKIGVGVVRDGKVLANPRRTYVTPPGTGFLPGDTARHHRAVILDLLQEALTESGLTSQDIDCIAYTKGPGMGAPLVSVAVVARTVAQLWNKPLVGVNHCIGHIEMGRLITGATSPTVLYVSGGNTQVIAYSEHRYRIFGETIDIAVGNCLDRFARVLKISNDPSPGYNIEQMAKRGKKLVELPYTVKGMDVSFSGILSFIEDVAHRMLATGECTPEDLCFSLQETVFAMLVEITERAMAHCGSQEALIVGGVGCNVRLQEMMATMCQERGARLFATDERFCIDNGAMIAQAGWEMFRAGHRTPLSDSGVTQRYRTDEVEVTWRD
UniProt Q9NYY8: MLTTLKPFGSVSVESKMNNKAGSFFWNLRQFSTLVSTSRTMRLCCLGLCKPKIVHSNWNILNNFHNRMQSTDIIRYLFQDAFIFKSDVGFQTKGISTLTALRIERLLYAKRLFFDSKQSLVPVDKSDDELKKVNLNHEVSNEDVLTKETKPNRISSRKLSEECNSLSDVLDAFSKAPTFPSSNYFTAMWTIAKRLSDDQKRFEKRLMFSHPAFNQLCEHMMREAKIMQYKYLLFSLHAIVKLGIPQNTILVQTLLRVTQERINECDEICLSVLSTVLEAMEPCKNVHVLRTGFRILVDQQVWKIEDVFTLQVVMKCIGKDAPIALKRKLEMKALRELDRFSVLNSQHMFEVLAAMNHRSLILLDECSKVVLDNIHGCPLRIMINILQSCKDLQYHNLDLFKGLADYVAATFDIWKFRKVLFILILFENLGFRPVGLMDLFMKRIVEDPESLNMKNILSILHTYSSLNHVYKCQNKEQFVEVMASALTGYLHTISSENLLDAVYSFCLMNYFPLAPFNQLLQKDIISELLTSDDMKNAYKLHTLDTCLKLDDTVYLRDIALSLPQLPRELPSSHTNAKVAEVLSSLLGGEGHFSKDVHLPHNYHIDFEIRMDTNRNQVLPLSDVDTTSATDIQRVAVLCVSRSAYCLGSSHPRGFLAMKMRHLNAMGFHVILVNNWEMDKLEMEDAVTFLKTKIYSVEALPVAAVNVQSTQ
UniProt Q9P086: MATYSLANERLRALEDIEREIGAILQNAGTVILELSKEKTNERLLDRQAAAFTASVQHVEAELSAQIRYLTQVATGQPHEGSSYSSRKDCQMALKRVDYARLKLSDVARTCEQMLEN
UniProt Q9NRX4: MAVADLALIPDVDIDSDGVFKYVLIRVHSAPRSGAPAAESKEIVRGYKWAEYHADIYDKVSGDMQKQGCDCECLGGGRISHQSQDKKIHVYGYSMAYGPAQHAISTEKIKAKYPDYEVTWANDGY
UniProt Q9NWZ8: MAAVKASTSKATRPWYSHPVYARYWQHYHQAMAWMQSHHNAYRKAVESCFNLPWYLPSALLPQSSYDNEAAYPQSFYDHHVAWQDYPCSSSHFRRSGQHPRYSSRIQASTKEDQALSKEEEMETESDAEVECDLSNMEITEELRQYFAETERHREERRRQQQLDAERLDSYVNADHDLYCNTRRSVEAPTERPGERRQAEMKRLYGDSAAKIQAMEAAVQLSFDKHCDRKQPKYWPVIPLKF
UniProt Q9P1Z2: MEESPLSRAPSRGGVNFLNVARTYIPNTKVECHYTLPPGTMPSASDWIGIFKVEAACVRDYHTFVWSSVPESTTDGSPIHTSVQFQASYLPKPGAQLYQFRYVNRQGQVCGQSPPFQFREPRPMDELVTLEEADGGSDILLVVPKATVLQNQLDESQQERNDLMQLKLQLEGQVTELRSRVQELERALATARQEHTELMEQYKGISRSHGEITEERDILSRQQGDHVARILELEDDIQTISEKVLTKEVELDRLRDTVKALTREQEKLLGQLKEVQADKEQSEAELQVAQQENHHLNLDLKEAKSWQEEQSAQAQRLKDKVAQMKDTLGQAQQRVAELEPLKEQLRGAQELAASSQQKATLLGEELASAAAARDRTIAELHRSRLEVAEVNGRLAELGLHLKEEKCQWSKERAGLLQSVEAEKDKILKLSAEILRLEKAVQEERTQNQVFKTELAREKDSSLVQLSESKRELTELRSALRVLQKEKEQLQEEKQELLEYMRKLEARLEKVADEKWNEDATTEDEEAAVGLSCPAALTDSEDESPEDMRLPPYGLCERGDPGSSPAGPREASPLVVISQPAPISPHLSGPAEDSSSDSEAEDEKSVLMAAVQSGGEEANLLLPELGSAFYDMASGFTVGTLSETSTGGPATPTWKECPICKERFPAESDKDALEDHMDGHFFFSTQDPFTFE
UniProt Q9NYR9: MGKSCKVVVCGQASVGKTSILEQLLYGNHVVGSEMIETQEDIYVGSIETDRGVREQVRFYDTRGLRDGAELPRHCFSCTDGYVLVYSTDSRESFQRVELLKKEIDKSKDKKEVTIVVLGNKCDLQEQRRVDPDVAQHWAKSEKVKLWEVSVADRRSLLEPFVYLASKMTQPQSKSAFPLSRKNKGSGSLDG

Compound: Nc1ncnc2c1ncn2[C@@H]1O[C@H](COP(=O)(O)OP(=O)(O)OP(=O)(O)O)[C@@H](O)[C@H]1O [adenosine triphosphate]
Test: NP40-soluble protein abundance relative to vehicle (solubility fold change) (ratio); higher = more soluble protein in presence of ATP
Outline: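 Jurkat crude lysate (Dounce-homogenised) was treated with eight concentrations from 0.1 to 10 mM for 10 min at room temperature, then 3 min at 37 °C. It was solubilised with 0.8% NP40 and benzonase (60 min, 4 °C) and ultracentrifuged, and the supernatant was TMT-labelled for LC-MS/MS. Intensities were vsn-normalised, and the value is the fold change against the NP40-processed vehicle per replicate, from three independent experiments.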

Target: UniProt Q9NZ09 and related entries
- NP40-soluble protein abundance (concentration: 0.1mM): 0.943 ± 0.088
- NP40-soluble protein abundance (concentration: 0.5mM): 0.902 ± 0.065

Target: UniProt Q9NZL9 and related entries
- NP40-soluble protein abundance (concentration: 0.1mM): 1.01 ± 0.049
- NP40-soluble protein abundance (concentration: 0.5mM): 1.02 ± 0.045

Target: UniProt Q9NVH6 and related entries
- NP40-soluble protein abundance (concentration: 0.1mM): 1.06 ± 0.086
- NP40-soluble protein abundance (concentration: 0.5mM): 1.03 ± 0.053

Target: UniProt Q9NXR5 and related entries
- NP40-soluble protein abundance (concentration: 0.1mM): 0.996 ± 0.094
- NP40-soluble protein abundance (concentration: 0.5mM): 0.953 ± 0.022

Target: UBQLN4 (UniProt Q9NRR5)
- NP40-soluble protein abundance (concentration: 0.1mM): 1.02 ± 0.064
- NP40-soluble protein abundance (concentration: 0.5mM): 0.994 ± 0.068

Target: C12orf4 (UniProt Q9NQ89)
- NP40-soluble protein abundance (concentration: 0.1mM): 1.07 ± 0.11
- NP40-soluble protein abundance (concentration: 0.5mM): 1.15 ± 0.15

Target: UniProt Q9P1Y5 and related entries
- NP40-soluble protein abundance (concentration: 0.1mM): 1.06 ± 0.083
- NP40-soluble protein abundance (concentration: 0.5mM): 1.07 ± 0.11

Target: UniProt Q9NUB1 and related entries
- NP40-soluble protein abundance (concentration: 0.1mM): 1.03 ± 0.083
- NP40-soluble protein abundance (concentration: 0.5mM): 1.05 ± 0.048

Target: FAM120C (UniProt Q9NX05)
- NP40-soluble protein abundance (concentration: 0.1mM): 0.988 ± 0.076
- NP40-soluble protein abundance (concentration: 0.5mM): 0.999 ± 0.09

Target: TXNL4B (UniProt Q9NX01)
- NP40-soluble protein abundance (concentration: 0.1mM): 1.01 ± 0.053
- NP40-soluble protein abundance (concentration: 0.5mM): 0.962 ± 0.08

Target: GSKIP (UniProt Q9P0R6)
- NP40-soluble protein abundance (concentration: 0.1mM): 0.934 ± 0.08
- NP40-soluble protein abundance (concentration: 0.5mM): 0.835 ± 0.2

Target: UniProt Q9NQS7 and related entries
- NP40-soluble protein abundance (concentration: 0.1mM): 0.996 ± 0.021
- NP40-soluble protein abundance (concentration: 0.5mM): 1.06 ± 0.021

Target: PLSCR3 (UniProt Q9NRY6)
- NP40-soluble protein abundance (concentration: 0.1mM): 1.113 ± 0.01
- NP40-soluble protein abundance (concentration: 0.5mM): 0.994 ± 0.039

Target: UniProt Q9NQ66 and related entries
- NP40-soluble protein abundance (concentration: 0.1mM): 1.01 ± 0.058
- NP40-soluble protein abundance (concentration: 0.5mM): 0.988 ± 0.04

Target: UniProt Q9NZB2 and related entries
- NP40-soluble protein abundance (concentration: 0.1mM): 0.992 ± 0.041
- NP40-soluble protein abundance (concentration: 0.5mM): 1.02 ± 0.049

Target: NIT2 (UniProt Q9NQR4)
- NP40-soluble protein abundance (concentration: 0.1mM): 1.02 ± 0.066
- NP40-soluble protein abundance (concentration: 0.5mM): 1.04 ± 0.071

Target: UniProt Q9P0J1 and related entries
- NP40-soluble protein abundance (concentration: 0.1mM): 1.009 ± 0.0073
- NP40-soluble protein abundance (concentration: 0.5mM): 0.953 ± 0.092

Target: SNX15 (UniProt Q9NRS6)
- NP40-soluble protein abundance (concentration: 0.1mM): 0.991 ± 0.029
- NP40-soluble protein abundance (concentration: 0.5mM): 0.946 ± 0.034

Target: UniProt Q9NVU7 and related entries
- NP40-soluble protein abundance (concentration: 0.1mM): 1.01 ± 0.02
- NP40-soluble protein abundance (concentration: 0.5mM): 1.03 ± 0.032

Target: UniProt Q9NQH7 and related entries
- NP40-soluble protein abundance (concentration: 0.1mM): 1.04 ± 0.054
- NP40-soluble protein abundance (concentration: 0.5mM): 1.05 ± 0.024

Target: UniProt Q9P0J0 and related entries
- NP40-soluble protein abundance (concentration: 0.1mM): 1 ± 0.047
- NP40-soluble protein abundance (concentration: 0.5mM): 0.936 ± 0.044

Target: TOMM22 (UniProt Q9NS69)
- NP40-soluble protein abundance (concentration: 0.1mM): 0.926 ± 0.12
- NP40-soluble protein abundance (concentration: 0.5mM): 0.869 ± 0.15

Target: UniProt Q9NZ01
- NP40-soluble protein abundance (concentration: 0.1mM): 0.987 ± 0.09
- NP40-soluble protein abundance (concentration: 0.5mM): 1.01 ± 0.029

Target: UniProt Q9NXR7
- NP40-soluble protein abundance (concentration: 0.1mM): 1.03 ± 0.076
- NP40-soluble protein abundance (concentration: 0.5mM): 0.986 ± 0.054

Target: UniProt Q9NS23-4
- NP40-soluble protein abundance (concentration: 0.1mM): 1.16 ± 0.045
- NP40-soluble protein abundance (concentration: 0.5mM): 1.16 ± 0.16

Target: OSGEP (UniProt Q9NPF4)
- NP40-soluble protein abundance (concentration: 0.1mM): 1.02 ± 0.059
- NP40-soluble protein abundance (concentration: 0.5mM): 0.989 ± 0.037

Target: VPS18 (UniProt Q9P253)
- NP40-soluble protein abundance (concentration: 0.1mM): 1.06 ± 0.035
- NP40-soluble protein abundance (concentration: 0.5mM): 1.04 ± 0.065

Target: FASTKD2 (UniProt Q9NYY8)
- NP40-soluble protein abundance (concentration: 0.1mM): 1.05 ± 0.075
- NP40-soluble protein abundance (concentration: 0.5mM): 1.02 ± 0.051

Target: MED11 (UniProt Q9P086)
- NP40-soluble protein abundance (concentration: 0.1mM): 1.06 ± 0.31
- NP40-soluble protein abundance (concentration: 0.5mM): 0.928 ± 0.11

Target: PHPT1 (UniProt Q9NRX4)
- NP40-soluble protein abundance (concentration: 0.1mM): 1.01 ± 0.018
- NP40-soluble protein abundance (concentration: 0.5mM): 0.995 ± 0.041

Target: MDN1 (UniProt Q9NU22)
- NP40-soluble protein abundance (concentration: 0.1mM): 1.08 ± 0.016
- NP40-soluble protein abundance (concentration: 0.5mM): 0.898 ± 0.018

Target: TRNAU1AP (UniProt Q9NX07)
- NP40-soluble protein abundance (concentration: 0.1mM): 0.975 ± 0.04
- NP40-soluble protein abundance (concentration: 0.5mM): 0.989 ± 0.059

Target: PAK1IP1 (UniProt Q9NWT1)
- NP40-soluble protein abundance (concentration: 0.1mM): 1.17 ± 0.18
- NP40-soluble protein abundance (concentration: 0.5mM): 1.05 ± 0.06

Target: UniProt Q9NRV9 and related entries
- NP40-soluble protein abundance (concentration: 0.1mM): 1.02 ± 0.058
- NP40-soluble protein abundance (concentration: 0.5mM): 0.997 ± 0.11

Target: PPP4R2 (UniProt Q9NY27)
- NP40-soluble protein abundance (concentration: 0.1mM): 0.959 ± 0.051
- NP40-soluble protein abundance (concentration: 0.5mM): 0.963 ± 0.055

Target: UniProt Q9NR31-2|Q9NR31
- NP40-soluble protein abundance (concentration: 0.1mM): 0.967 ± 0.035
- NP40-soluble protein abundance (concentration: 0.5mM): 1.01 ± 0.047

Target: PNO1 (UniProt Q9NRX1)
- NP40-soluble protein abundance (concentration: 0.1mM): 0.918 ± 0.099
- NP40-soluble protein abundance (concentration: 0.5mM): 1.04 ± 0.044

Target: UniProt Q9NVQ4 and related entries
- NP40-soluble protein abundance (concentration: 0.1mM): 1.09 ± 0.13
- NP40-soluble protein abundance (concentration: 0.5mM): 1.06 ± 0.033

Target: GEMIN8 (UniProt Q9NWZ8)
- NP40-soluble protein abundance (concentration: 0.1mM): 0.91 ± 0.16
- NP40-soluble protein abundance (concentration: 0.5mM): 0.892 ± 0.14

Target: UniProt Q9P1Z2 and related entries
- NP40-soluble protein abundance (concentration: 0.1mM): 1.02 ± 0.08
- NP40-soluble protein abundance (concentration: 0.5mM): 0.993 ± 0.037

Target: UniProt Q9NYR9 and related entries
- NP40-soluble protein abundance (concentration: 0.1mM): 1.02 ± 0.018
- NP40-soluble protein abundance (concentration: 0.5mM): 1.08 ± 0.059

Target: UniProt Q9NRR4 and related entries
- NP40-soluble protein abundance (concentration: 0.1mM): 1.12 ± 0.1
- NP40-soluble protein abundance (concentration: 0.5mM): 1.18 ± 0.12

Target: UniProt Q9NWF9 and related entries
- NP40-soluble protein abundance (concentration: 0.1mM): 0.94 ± 0.09
- NP40-soluble protein abundance (concentration: 0.5mM): 0.973 ± 0.084
